According to publication PMC5595280, “Cytotoxicity and anti-tumor effects of new ruthenium complexes on triple negative breast cancer cells” (PLoS ONE, 2017):

Key:
[1] = system: MDA-MB-231 cells; assay: MTT cell proliferation assay; type: cell-based, human; conditions: ratio IC50 (MCF-10A) / IC50 (MDA-MB-231)
Method: MDA-MB-231 human breast tumor cells and MCF7 human breast tumor cells, obtained from Rio de Janeiro Cell Bank, were maintained at 37°C in 5% CO2 in DMEM medium containing fetal bovine serum (FBS) 10% (Vitrocell). MCF-10A, a non-tumor breast cell line, obtained from Rio de Janeiro Cell Bank, was cultivated in DMEM/F12 medium containing horse serum (HS) 5%, EGF (0.02 mg/mL); hydrocortisone (0.05 mg/mL); cholera toxin (0.001 mg/mL) and insulin (0.01 mg/mL). Both media contained penicillin (100 UI/mL), streptomycin ([…]) and L-glutamine (2 mM).
Proliferation assays were performed as described earlier. Briefly, cells lines were prepared in a concentration of 1x10^4 cells/100 μL, in complete medium (with 10% FBS), and plated on sterile 96-well plates for 24 h. The culture medium was removed from the wells and a new one, supplemented with 10% FBS and containing different concentrations of (1) [Ru(SO4)(dppb)(bipy)] (2) [Ru(CO3)(dppb)(bipy)], (3), [Ru(C2O4)(dppb)(bipy)], or (4) [Ru(CH3CO2)(dppb)(bipy)]PF6, was added to the wells. Cells were incubated for 24 h under the same conditions as described above. Cell proliferation assay was performed in comparison with untreated control. After incubation, the culture medium of each well was removed and a solution containing MTT (1 mg/mL) was added (100 μL/well). The plates were then kept at 37°C for 4 h and the formed crystals were dissolved in DMSO. The absorbance was read on an ELISA plate reader at a wavelength of 540 nm. […] The selectivity index (SI) was calculated as the ratio IC50 (MCF-10A) / IC50 (MDA-MB-231).
Each experiment was repeated three times in triplicate and a standard error mean was calculated. Shapiro-Wilk’s test was used to verify data normality. As normal distribution was present, the results were compared statistically with a one-way or two-way analysis of variance (ANOVA). […] The data were analysed and IC50 calculations were made using Hill’s equation in the GraphPad Prism software (version 6.05).

[2] = system: ct-DNA (calf thymus DNA); assay: UV-Vis spectroscopic titration with ct-DNA; type: binding; conditions: hypochromism on ct-DNA addition

| Molecule | SI (selectivity index) [1] | % H (DNA) [2] [%] |
| --- | --- | --- |
| CC(=O)[O-].F[P-](F)(F)(F)(F)F.[Ru+2].c1ccc(-c2ccccn2)nc1.c1ccc(P(CCCCP(c2ccccc2)c2ccccc2)c2ccccc2)cc1 [Complex (4), [Ru(CH3CO2)(dppb)(bipy)]PF6] | 1.57 | 37.80 ± 1.00 |
| O=C([O-])C(=O)[O-].[Ru+2].c1ccc(-c2ccccn2)nc1.c1ccc(P(CCCCP(c2ccccc2)c2ccccc2)c2ccccc2)cc1 [Complex (3), [Ru(C2O4)(dppb)(bipy)]] | < 0.21 | 58.55 ± 0.92 |
| O=S(=O)([O-])[O-].[Ru+2].c1ccc(-c2ccccn2)nc1.c1ccc(P(CCCCP(c2ccccc2)c2ccccc2)c2ccccc2)cc1 [Complex (1), [Ru(SO4)(dppb)(bipy)]] | < 0.21 | 51.45 ± 2.15 |
| [Cl-].[Cl-].[Ru+2].c1ccc(-c2ccccn2)nc1.c1ccc(P(CCCCP(c2ccccc2)c2ccccc2)c2ccccc2)cc1 [Precursor, cis-[RuCl2(dppb)(bipy)], reference compound] | < 0.41 | – |
| [Ru(CO3)(dppb)(bipy)] [Complex (2)] | 0.60 | 53.04 ± 0.20 |
